PubChem BioAssay AID652259, Drosophila RNAi Screening Center | 2013
The screen tested about 22,000 reagents; shown is an unselected part of those with a known target gene and a result. Over the whole deposit, 233 (1.1%) got an active call. 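Light values are raw, unnormalised plate reads; the ratio scores behind the reporter calls were not deposited.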 Names joined by + are all predicted targets of the reagent. Reagent sequences are not shown. Not given: the amount of reagent, the time to read-out, the dose of the treatment.

Assay: 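Knock-downs that push a Wingless-driven reporter up or down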 (primary screen)
System: Drosophila clone 8 imaginal disc epithelial cells
Knock-down reagent: long dsRNA against Drosophila genes
Conditions: pathway stimulated by co-transfected Wingless expression plasmid
Detection: 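Firefly luciferase from a tcf-site Wingless reporter, measured alongside co-transfected Renilla luciferase that tracks transfection; pathway stimulated by a Wingless plasmid; the firefly-to-Renilla ratio is not deposited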
Reading the numbers: firefly reporter light: higher = more Wg reporter light, before normalisation; Renilla control light: higher = more transfected or surviving cells
Call rule: 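Strong candidates differ from their plate mean by at least two out of four per-plate statistical tests; weak candidates meet just one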
Meaning of the calls: active = candidate regulator (raises or lowers reporter); inactive = not a candidate

| gene knocked down | dsRNA | firefly reporter light, replicate 1 | firefly reporter light, replicate 2 | Renilla control light, replicate 1 | Renilla control light, replicate 2 | activity call |
| --- | --- | --- | --- | --- | --- | --- |
| Lsp1beta | DRSC00757 | 8976 | – | 3539 | – | inactive |
| CG6686 | DRSC02979 | 13298 | – | 1953 | – | inactive |
| fws | DRSC02969 | 6866 | – | 2656 | – | inactive |
| Ttc1 | DRSC15016 | 26967 | – | 8400 | – | inactive |
| Ttc1 | DRSC22469 | 7.42e5 | 7.60e5 | 3.59e5 | 3.63e5 | inactive |
| maca | DRSC15738 | 9749 | – | 3014 | – | inactive |
| CG10748 | DRSC09797 | 7884 | – | 2882 | – | inactive |
| CG42240 | DRSC18097 | 1377 | 5600 | 464 | 2187 | inactive |
| CG3663 | DRSC04402 | 14281 | – | 4082 | – | inactive |
| insb | DRSC06995 | 8440 | – | 2361 | – | inactive |
| CG34195 | DRSC06909 | 4824 | – | 2066 | – | inactive |
| Fit2 | DRSC10908 | 3627 | – | 1443 | – | inactive |
| glob2 | DRSC12560 | 13372 | – | 4313 | – | inactive |
| CG31807 | DRSC01550 | 11061 | – | 6003 | – | inactive |

5 entries from above, set out differently.
CG10748 [DRSC09797]
- firefly reporter light, replicate 1: 7884
- Renilla control light, replicate 1: 2882
- activity call: inactive

CG42240 [DRSC18097]
- firefly reporter light, replicate 1: 1377
- firefly reporter light, replicate 2: 5600
- Renilla control light, replicate 1: 464
- Renilla control light, replicate 2: 2187
- activity call: inactive

CG3663 [DRSC04402]
- firefly reporter light, replicate 1: 14281
- Renilla control light, replicate 1: 4082
- activity call: inactive

insb [DRSC06995]
- firefly reporter light, replicate 1: 8440
- Renilla control light, replicate 1: 2361
- activity call: inactive

CG34195 [DRSC06909]
- firefly reporter light, replicate 1: 4824
- Renilla control light, replicate 1: 2066
- activity call: inactive

The results go on.
| gene knocked down | dsRNA | firefly reporter light, replicate 1 | firefly reporter light, replicate 2 | Renilla control light, replicate 1 | Renilla control light, replicate 2 | activity call |
| --- | --- | --- | --- | --- | --- | --- |
| Vajk1 | DRSC01882 | 6224 | 8100 | 1728 | 4647 | inactive |
| Ilk | DRSC11868 | 2387 | – | 1202 | – | inactive |
| CG15096 | DRSC06525 | 24145 | – | 7136 | – | inactive |
| Cec-Psi1 | DRSC21956 | 6.11e5 | 6.59e5 | 2.27e5 | 2.49e5 | inactive |
| CR43096 + CG43060 | DRSC12654 | 5015 | – | 2017 | – | inactive |
| Hsc70-1 | DRSC11185 | 5346 | – | 1652 | – | inactive |
| Cda4 | DRSC20623 | 14429 | – | 10998 | – | inactive |
| Cda4 | DRSC20641 | 16160 | – | 11042 | – | inactive |
| Cda4 | DRSC20642 | 15776 | – | 9510 | – | inactive |
| CG10053 | DRSC12502 | 7959 | – | 2966 | – | inactive |
| Ufsp1 | DRSC04958 | 15925 | – | 8555 | – | inactive |
| kay | DRSC13962 | 4757 | – | 1728 | – | inactive |
| kay | DRSC15048 | 6224 | – | 697 | – | inactive |
| kay | DRSC16977 | 2396 | 4960 | 672 | 967 | inactive |
| CG10920 | DRSC17765 | 18288 | – | 9241 | – | inactive |
